# Data: article PMC2790608
# By UniProt entry, the sequences of proteins in these tests, tags left out.
# UniProt P63208: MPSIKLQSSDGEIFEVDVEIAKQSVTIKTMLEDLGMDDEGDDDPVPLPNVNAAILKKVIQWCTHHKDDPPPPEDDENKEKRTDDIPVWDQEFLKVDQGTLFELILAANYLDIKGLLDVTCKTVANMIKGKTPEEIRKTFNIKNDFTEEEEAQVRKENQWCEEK
# Results are given in words; binding and its absence hold for the method and conditions named. Binding seen in cells or lysates may run through a third protein.
# Molecular target: 3X-Flag-bacterial alkaline phosphatase (BAP) [phosphatase: P00634]
# Test: co-IP
substance,measurement,value
SKP1-GST (from UniProt P63208 1-163),binding,no binding
